According to the supplement of paper PMC11006884:
The targets with a hit were mostly taken out for another list; the other results follow. Single values of this set are uncertain. The entries are a selection whose mix differs from that of the whole data set.

Chains of the proteins cited; added tags and fusions are not shown. Lines headed by an entry give the natural chain unless they say otherwise; changes in a name come on top.
UniProt Q9BTC0, whole entry, looked up: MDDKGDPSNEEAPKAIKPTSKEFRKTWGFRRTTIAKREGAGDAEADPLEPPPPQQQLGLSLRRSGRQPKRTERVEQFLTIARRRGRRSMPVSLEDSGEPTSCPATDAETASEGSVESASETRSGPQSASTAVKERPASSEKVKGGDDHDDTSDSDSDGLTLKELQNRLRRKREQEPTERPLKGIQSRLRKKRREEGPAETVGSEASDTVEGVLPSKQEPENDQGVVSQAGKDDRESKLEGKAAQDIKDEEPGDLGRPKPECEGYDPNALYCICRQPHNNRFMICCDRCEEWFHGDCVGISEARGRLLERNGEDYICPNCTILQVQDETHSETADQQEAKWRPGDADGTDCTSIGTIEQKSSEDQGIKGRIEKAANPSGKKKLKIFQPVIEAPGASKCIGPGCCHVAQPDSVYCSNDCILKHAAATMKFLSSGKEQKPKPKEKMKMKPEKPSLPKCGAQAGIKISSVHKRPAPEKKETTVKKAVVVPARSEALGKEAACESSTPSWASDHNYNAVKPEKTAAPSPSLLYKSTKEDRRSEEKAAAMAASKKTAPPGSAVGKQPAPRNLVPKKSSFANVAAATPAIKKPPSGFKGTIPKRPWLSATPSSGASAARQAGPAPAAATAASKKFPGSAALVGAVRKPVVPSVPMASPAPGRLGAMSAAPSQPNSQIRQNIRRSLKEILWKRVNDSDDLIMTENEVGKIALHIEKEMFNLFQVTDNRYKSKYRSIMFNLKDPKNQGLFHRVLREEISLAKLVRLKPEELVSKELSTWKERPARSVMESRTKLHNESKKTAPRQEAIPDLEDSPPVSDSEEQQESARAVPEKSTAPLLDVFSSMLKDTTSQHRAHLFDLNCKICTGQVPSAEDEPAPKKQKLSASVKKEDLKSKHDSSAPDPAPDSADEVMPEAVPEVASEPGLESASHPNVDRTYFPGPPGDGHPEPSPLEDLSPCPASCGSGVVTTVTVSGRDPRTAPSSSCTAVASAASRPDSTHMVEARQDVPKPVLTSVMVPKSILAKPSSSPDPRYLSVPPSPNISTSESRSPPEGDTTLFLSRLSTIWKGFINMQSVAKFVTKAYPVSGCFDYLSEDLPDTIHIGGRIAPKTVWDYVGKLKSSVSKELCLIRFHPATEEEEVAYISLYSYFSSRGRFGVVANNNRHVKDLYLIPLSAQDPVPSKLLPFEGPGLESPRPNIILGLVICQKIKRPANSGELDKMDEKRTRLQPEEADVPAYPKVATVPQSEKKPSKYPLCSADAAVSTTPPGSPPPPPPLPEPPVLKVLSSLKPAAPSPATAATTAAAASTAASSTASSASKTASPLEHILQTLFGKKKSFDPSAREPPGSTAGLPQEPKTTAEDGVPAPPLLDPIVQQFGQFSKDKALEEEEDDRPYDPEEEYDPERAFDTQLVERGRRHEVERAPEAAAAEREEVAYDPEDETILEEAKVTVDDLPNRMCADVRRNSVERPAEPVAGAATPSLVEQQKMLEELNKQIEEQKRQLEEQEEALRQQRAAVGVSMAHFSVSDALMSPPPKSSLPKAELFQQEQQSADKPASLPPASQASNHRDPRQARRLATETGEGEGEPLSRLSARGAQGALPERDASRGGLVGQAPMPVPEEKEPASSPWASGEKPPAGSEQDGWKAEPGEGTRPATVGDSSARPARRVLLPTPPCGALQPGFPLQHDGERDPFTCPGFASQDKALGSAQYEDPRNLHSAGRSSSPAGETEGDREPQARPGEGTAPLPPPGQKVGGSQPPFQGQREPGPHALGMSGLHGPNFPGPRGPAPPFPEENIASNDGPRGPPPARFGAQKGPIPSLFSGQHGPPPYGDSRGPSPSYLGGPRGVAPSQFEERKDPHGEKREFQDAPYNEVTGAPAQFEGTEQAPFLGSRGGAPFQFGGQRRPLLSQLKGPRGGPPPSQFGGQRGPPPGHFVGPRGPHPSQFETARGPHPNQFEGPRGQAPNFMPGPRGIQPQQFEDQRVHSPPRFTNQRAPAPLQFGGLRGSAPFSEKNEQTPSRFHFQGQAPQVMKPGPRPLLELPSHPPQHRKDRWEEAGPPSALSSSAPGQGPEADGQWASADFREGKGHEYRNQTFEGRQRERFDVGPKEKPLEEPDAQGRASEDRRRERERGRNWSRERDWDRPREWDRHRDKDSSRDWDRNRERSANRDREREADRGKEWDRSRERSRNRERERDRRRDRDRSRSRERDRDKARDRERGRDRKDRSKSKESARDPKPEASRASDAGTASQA
UniProt Q9BSH5: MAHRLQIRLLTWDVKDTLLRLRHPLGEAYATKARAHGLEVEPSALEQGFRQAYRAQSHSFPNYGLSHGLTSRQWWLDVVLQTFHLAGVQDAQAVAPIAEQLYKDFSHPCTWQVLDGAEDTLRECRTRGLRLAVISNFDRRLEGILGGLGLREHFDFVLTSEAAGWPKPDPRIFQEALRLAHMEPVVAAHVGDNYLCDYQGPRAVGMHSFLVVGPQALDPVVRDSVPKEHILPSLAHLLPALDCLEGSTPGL
UniProt Q9BY77: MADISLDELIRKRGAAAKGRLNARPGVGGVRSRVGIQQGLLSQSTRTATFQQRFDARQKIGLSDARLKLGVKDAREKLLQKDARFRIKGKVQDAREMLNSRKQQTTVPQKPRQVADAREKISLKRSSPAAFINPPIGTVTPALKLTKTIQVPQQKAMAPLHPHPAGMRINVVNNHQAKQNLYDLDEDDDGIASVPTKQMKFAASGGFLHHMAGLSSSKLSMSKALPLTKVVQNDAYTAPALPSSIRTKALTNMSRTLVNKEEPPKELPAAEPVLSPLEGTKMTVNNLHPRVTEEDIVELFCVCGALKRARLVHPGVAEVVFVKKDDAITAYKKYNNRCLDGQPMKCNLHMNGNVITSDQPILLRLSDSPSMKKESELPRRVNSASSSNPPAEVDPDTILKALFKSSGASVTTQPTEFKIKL
UniProt Q9C0D5: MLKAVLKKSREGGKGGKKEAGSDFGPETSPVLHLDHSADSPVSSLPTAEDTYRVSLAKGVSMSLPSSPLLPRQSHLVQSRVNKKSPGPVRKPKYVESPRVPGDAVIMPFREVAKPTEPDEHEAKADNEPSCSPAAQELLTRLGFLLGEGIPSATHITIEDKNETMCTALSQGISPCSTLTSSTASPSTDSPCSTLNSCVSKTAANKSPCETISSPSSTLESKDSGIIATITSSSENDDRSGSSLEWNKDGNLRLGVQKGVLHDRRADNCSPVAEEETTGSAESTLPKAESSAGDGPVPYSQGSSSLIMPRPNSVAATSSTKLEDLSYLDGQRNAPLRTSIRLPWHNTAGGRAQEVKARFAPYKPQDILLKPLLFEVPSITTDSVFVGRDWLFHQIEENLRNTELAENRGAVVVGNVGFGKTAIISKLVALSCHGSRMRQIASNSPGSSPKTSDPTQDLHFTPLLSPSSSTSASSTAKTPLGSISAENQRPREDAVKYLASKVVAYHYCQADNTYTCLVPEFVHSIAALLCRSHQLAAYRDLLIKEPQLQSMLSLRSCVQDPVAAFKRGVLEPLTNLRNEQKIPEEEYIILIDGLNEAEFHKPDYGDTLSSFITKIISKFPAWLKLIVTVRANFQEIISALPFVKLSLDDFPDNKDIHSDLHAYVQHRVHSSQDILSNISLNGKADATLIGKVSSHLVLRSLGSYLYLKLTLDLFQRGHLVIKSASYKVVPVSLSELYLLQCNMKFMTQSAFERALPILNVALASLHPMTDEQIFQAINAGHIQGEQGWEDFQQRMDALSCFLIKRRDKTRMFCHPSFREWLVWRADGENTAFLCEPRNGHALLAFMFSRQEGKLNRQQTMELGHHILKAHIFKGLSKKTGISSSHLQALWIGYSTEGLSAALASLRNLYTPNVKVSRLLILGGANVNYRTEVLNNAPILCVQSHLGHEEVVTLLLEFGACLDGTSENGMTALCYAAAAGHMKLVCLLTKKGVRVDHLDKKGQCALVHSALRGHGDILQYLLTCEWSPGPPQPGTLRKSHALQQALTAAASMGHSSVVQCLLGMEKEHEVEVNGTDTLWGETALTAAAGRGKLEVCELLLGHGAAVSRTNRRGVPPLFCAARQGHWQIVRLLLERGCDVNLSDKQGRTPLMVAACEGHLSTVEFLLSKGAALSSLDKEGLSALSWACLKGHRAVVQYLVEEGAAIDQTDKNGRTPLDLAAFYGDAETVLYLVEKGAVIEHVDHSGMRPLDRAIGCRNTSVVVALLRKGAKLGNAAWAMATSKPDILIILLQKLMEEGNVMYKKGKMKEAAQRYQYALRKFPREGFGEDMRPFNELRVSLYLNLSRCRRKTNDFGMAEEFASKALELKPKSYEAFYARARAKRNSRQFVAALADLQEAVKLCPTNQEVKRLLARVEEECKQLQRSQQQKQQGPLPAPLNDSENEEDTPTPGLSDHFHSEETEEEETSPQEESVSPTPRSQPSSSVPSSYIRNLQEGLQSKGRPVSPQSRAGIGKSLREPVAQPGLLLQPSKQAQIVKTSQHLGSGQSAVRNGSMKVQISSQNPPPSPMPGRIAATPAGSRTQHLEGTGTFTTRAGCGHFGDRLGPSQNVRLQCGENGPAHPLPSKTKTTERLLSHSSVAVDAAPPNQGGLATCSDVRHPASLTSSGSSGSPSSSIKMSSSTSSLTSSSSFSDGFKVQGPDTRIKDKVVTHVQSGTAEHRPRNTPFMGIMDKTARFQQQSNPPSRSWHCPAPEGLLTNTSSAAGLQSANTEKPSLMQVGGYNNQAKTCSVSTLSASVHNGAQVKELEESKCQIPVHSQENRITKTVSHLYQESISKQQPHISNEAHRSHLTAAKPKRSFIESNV
UniProt Q9BXP5: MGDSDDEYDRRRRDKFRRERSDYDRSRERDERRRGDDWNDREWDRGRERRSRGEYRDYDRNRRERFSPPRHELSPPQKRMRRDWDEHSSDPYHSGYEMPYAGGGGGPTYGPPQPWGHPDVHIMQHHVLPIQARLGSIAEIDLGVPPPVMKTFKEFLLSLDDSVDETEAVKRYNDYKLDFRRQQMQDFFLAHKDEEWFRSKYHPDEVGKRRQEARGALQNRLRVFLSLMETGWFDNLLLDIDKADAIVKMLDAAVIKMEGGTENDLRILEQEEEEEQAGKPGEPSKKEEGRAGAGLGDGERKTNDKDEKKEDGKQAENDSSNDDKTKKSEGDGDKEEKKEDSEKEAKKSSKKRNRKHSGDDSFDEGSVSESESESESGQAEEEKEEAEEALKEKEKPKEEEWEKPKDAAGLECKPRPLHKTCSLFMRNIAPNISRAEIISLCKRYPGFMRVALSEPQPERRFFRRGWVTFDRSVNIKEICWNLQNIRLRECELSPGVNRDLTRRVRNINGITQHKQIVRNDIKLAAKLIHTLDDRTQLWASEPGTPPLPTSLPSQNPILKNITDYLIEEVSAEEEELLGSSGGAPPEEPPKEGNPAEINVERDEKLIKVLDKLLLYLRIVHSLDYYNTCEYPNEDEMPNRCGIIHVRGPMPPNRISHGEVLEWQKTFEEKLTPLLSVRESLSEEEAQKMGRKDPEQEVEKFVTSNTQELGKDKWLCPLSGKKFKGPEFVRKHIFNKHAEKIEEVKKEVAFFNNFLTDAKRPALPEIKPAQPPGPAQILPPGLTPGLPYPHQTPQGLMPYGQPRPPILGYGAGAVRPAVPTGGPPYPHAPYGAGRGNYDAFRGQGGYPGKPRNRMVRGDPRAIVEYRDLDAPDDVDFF
UniProt Q9BZQ6: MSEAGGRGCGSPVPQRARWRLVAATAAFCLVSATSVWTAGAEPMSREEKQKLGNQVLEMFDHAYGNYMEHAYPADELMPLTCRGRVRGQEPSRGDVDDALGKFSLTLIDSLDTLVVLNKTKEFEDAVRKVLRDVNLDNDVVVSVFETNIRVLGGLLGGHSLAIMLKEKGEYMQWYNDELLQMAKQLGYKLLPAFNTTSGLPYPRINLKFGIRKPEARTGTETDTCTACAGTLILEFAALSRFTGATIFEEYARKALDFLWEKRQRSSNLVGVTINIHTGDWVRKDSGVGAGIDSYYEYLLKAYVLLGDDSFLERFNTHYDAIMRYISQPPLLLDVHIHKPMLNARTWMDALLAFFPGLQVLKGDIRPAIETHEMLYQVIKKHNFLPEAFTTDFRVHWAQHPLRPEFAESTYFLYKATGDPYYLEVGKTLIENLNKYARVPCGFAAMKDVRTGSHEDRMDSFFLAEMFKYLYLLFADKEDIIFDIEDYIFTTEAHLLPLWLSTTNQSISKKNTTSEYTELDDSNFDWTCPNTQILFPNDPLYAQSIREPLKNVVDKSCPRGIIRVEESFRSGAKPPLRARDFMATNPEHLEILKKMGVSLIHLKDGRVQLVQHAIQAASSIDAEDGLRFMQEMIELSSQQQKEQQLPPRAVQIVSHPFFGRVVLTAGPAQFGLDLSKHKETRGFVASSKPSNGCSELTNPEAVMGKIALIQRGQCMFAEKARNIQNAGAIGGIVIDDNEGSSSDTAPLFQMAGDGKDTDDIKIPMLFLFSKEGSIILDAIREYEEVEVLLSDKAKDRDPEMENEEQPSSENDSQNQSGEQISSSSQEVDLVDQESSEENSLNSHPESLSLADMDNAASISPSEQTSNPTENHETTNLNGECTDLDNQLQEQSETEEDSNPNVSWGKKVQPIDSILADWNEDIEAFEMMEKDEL

These targets were tested with COC(=O)/C=C/c1ccccc1 [methyl cinnamate] (assay: log2 ratio of iodoacetamide-alkyne labeling of the cysteine site, DMSO over compound (competition); higher = stronger covalent engagement of the cysteine by the compound, active = 1 or more). Conditions: 500 µM; treatment time 1 h; system: HEK293T cell lysate.
In short: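 The log2 competition ratio per cysteine is defined as mean reporter intensity in control channels over mean reporter intensity in compound channels. Lysate from HEK293T cells (2 mg/mL) received electrophile (500 µM) or vehicle for 1 h at ambient temperature, followed by iodoacetamide alkyne for 1 h. Samples were clicked to sCIP-TMT reagents, pooled, trypsin-digested overnight at 37 °C, streptavidin-enriched, acid-eluted and run on Orbitrap Eclipse LC-MS/MS with FAIMS, with quantification in FragPipe. Three replicates with duplicate channels were used, and any cysteine quantified in only one replicate was excluded.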

Target	log2 ratio of iodoacetamide-alkyne labeling
UniProt Q9BVS4_C449	inactive: 0.335
ILKAP C135 (UniProt Q9H0C8)	inactive: -0.0887
UNC93B1 C583 (UniProt Q9H1C4)	inactive: 0.392
ISCU C69 (UniProt Q9H1K1)	inactive: 0.177
ADPGK C40 (UniProt Q9BRR6)	inactive: 0.146
DIDO1 C856 (UniProt Q9BTC0)	inactive: -0.00383
HDHD3 C196 (UniProt Q9BSH5)	inactive: 0.0256
NSD3 C1184 (UniProt Q9BZ95)	inactive: 0.123
TOLLIP C229 (UniProt Q9H0E2)	inactive: 0.013
SPATA5L1 C78 (UniProt Q9BVQ7)	inactive: 0.251
RBM4 C107 (UniProt Q9BWF3)	inactive: -0.129
SLC4A1AP C125 (UniProt Q9BWU0)	inactive: -0.000441
CLPB C572 (UniProt Q9H078)	inactive: -0.0962
UniProt Q9BUH6_C180	inactive: 0.247
DDX24 C639 (UniProt Q9GZR7)	inactive: -0.27
UniProt Q9BTY7_C51	inactive: 0.0697
POLDIP3 C346 (UniProt Q9BY77)	inactive: 0.0252
HERPUD2 C28 (UniProt Q9BSE4)	inactive: 0.549
XRN2 C159 (UniProt Q9H0D6)	inactive: 0.223

Target	log2 ratio of iodoacetamide-alkyne labeling
TANC1 C1651 (UniProt Q9C0D5)	inactive: 0.376
UniProt Q9BXP5_C412	inactive: 0.401
ANP32E C87 (UniProt Q9BTT0)	inactive: 0.483
ACTR6 C28 (UniProt Q9GZN1)	inactive: 0.192
PUS7L C267 (UniProt Q9H0K6)	inactive: 0.313
SETD2 C1471 (UniProt Q9BYW2)	inactive: -0.033
UCK2 C241 (UniProt Q9BZX2)	inactive: 0.278
ATG5 C19 (UniProt Q9H1Y0)	inactive: 0.217
REXO4 C418 (UniProt Q9GZR2)	inactive: 0.197
DIDO1 C498 (UniProt Q9BTC0)	inactive: 0.463
NDFIP1 C15 (UniProt Q9BT67)	inactive: 0.0412
PDCL3 C127 (UniProt Q9H2J4)	inactive: 0.145
CSTF2T C441 (UniProt Q9H0L4)	inactive: 0.143
ITPA C146 (UniProt Q9BY32)	inactive: 0.297
UPF3B C453 (UniProt Q9BZI7)	inactive: 0.333
UniProt Q9BYG3_C269	inactive: 0.367
ACAT2 C158 (UniProt Q9BWD1)	inactive: 0.0477
EDEM3 C82 (UniProt Q9BZQ6)	inactive: 0.0451
NUDT9 C207 (UniProt Q9BW91)	inactive: 0.199

A portion from further up, for reference:
Target	log2 ratio of iodoacetamide-alkyne labeling
REXO4 C418 (UniProt Q9GZR2)	inactive: 0.197
DIDO1 C498 (UniProt Q9BTC0)	inactive: 0.463
